Structures are written as SMILES. This is one part of the list. Shown are side measurements of this screen, not its main read-out; they come without a call. Most of these compounds were active or inconclusive in the main read-out, so they are no random draw. Potencies come from curve fits of mixed quality, noted in brackets.

The assay is described as follows: IkB Signaling. Particulars: ABC-DLBCL IkBa-CBG/CBR dual luciferase ratio (green luciferase fused to IkBa over red control in OCI-Ly3 lymphoma cells), 4 h; measured here: control luc red channel unless noted. The procedure, abridged: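 Luminescence ratio of IκBα-fused green versus native red beetle luciferase in OCI-Ly3 cells, 4 h post-doxycycline with compound; red signal alone, scaled from basal (0%) to zero light (-100%), flagged nonspecific or cytotoxic effects.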
In the case of `CCc1ccc2oc(C(=O)Nc3nc(-c4ccc(F)cc4)ns3)c(C)c2c1`, the AC50 is 25.1 µM [falling, partial curve].
In the case of `CCOc1ccccc1CNC(=O)C1CCN(c2nnc(C)c3c(C)n(-c4ccc(C)cc4)nc23)CC1` it was 10 µM [falling, partial curve]; in that of `COC(=O)CCC/C=C1/SCC(NC(=O)c2ccccc2)C1O` (centres undefined), 3.98 µM [falling, partial curve]; in that of `O=C(CC1(O)C(=O)N(CCc2ccccc2)c2ccc(Br)cc21)c1ccccc1` (centres undefined), 15.8 µM [falling, partial curve].
Under `CNC(=O)c1ccc(-c2nc(CN3CCc4ccccc43)c(C)o2)cc1` stands 0.126 µM [rising, full curve]; under `COc1ccc(S(=O)(=O)N(Cc2nc(-c3ccccc3)no2)C2CCCCC2)cc1`, 12.6 µM [falling, partial curve]; under `CCSC1=C(C#N)C2(CCCC2)C(C#N)=C(N)N1`, 25.1 µM [falling, single point].
Take `Fc1ccc(Nc2nc(SCc3ccc(Cl)cc3)nc3ccccc23)cc1`: the AC50 was 39.8 µM [falling, single point].
In the case of `Cc1ccccc1C(=O)NCC(c1ccc(N(C)C)cc1)N1CCCC1` (centres undefined), the AC50 is 0.501 µM [falling, full curve].
In the case of `Cc1cccc(-c2noc(-c3cccnc3NCc3ccccc3Cl)n2)c1` it was 25.1 µM [falling, partial curve]; in that of `CCc1ccccc1N1CC(c2nc3ccccc3n2CCCCOc2ccccc2OC)CC1=O` (centres undefined), 12.6 µM [falling, partial curve].
`O=C1CCc2cc(S(=O)(=O)NC(C(=O)Nc3ccc(F)cc3)c3ccccc3)ccc2N1` (centres undefined): the AC50 was 10 µM [falling, partial curve].
Take `Cc1cccc(N2CCN(CC(=O)NCC3CCCCC3)CC2)c1C`: the AC50 is 25.1 µM [falling, partial curve].
Under `CC(C)c1cnc2c(c1SCc1ccc([N+](=O)[O-])cc1)c(=O)n(C)c(=O)n2C` stands 25.1 µM [falling, partial curve].
Regarding `CN(CCCNC(=O)c1cc2c(Cl)nc3ccccc3c2s1)Cc1ccccc1`, the AC50 is 25.1 µM [falling, single point].
On to `COC(=O)c1c(NC(=O)c2cc3ccccc3c(=O)o2)sc2c1CCCC2`, for which the half-maximal activity concentration (AC50) was 10 µM [falling, partial curve].
Under `CC(=O)c1cccc(NC(=O)C(C)n2c(=O)cc(C)c3c(C)nn(-c4ccccc4)c32)c1` (centres undefined) stands 0.794 µM [rising, partial curve].
In the case of `COc1ccc(CCNC(=O)c2ccc(Nc3nc4ccccc4n4nnnc34)cc2)cc1OC` it was 3.16 µM [falling, partial curve]; in that of `Cc1cccc(N(CC(O)Cn2c3ccccc3c3ccccc32)S(=O)(=O)c2ccc(F)cc2)c1` (centres undefined), 7.94 µM [falling, partial curve]; in that of `O=C1CC(c2ccco2)CC(O)=C1C=NCC1NCCc2ccccc21` (centres undefined), 20 µM [rising, partial curve] [measured here: IkB-luc green channel].
Under `CCOC(=O)N1CCN(C(=O)CCCn2nc(C)c3sc4ccccc4c3c2=O)CC1` stands 7.94 µM [falling, partial curve].
Turning to `Cc1ccc2onc(CC(=O)N3CCN(c4ccc(F)cc4)CC3)c2c1`, the concentration at half-maximal activity (AC50) is 25.1 µM [falling, partial curve].
In the case of `CCOC(=O)c1[nH]c2c(c1Cc1ccccc1C)C(=O)CC(c1cc(OC)ccc1OC)C2` (centres undefined), the AC50 was 6.31 µM [falling, full curve].
With `Cc1ccc(-c2nc(CS(=O)(=O)CC(=O)N3CCc4ccccc4C3)c(C)o2)cc1`, the AC50 was 15.8 µM [falling, partial curve].
Consider `O=C(COc1ccccc1)NCCc1csc(-c2ccc(Cl)cc2)n1`, for which the AC50 is 3.16 µM [falling, single point].
In the case of `O=C(CSc1nc2scc(-c3ccco3)c2c(=O)n1-c1ccccc1)N1CCOCC1` it was 6.31 µM [rising, full curve] [measured here: IkB-luc green channel].
Regarding `CCc1nn2c(=O)cc(COc3ccc(/C=C(\C#N)C(=O)Nc4ccc(F)cc4)cc3OC)nc2s1`, the AC50 is 5.01 µM [rising, partial curve].
Regarding `CCCCOc1ccc(S(=O)(=O)NCc2csc(C)n2)cc1`, the AC50 was 10 µM [falling, partial curve].
`Cc1cccc(N2C(N)=C(C#N)C(C#N)(C#N)C2c2ccccc2)c1` (centres undefined): the AC50 is 39.8 µM [falling, single point].
In the case of `CCOC(=O)c1ccc(NC(=O)C2CCN(S(=O)(=O)c3ccc4c(c3)CCCC(=O)N4)CC2)cc1` it was 20 µM [falling, single point].
Take `Cc1ccccc1-c1nn2c(=O)cc(CN3CCN(C(=O)/C=C/c4ccccc4)CC3)nc2s1`: the AC50 is 20 µM [falling, single point].
In the case of `CCc1ccc(NC(=O)Cn2c(=O)n(CCC(=O)N3CCc4ccccc4C3)c(=O)c3ccccc32)cc1` it was 39.8 µM [falling, single point]; in that of `Cc1cc(C)cc(NC(=O)N2CCC3(CC2)Oc2ccccc2C(=O)N3Cc2ccccc2F)c1`, 20 µM [falling, partial curve, poor fit]; in that of `COc1ccc(Br)c(C(=O)Nc2cc3c(cc2N2CCOCC2)n(C)c(=O)n3C)c1`, 0.0126 µM [rising, full curve, poor fit].
With `CCOc1ccc(NC(=O)c2c(NCc3cccnc3)sc3c2CCCC3)cc1`, the AC50 is 39.8 µM [falling, single point].
Take `CCOC(=O)c1ccc(CN(Cc2ccc(F)cc2)S(=O)(=O)c2ccc(F)c(C(=O)Nc3ccc(Cl)cc3F)c2)cc1`: the AC50 was 12.6 µM [falling, partial curve].
As to `COc1cccc(N2CCN(C(=O)c3cccc(-n4c(C)nc5cccnc54)c3)CC2)c1`, the half-maximal activity concentration (AC50) is 25.1 µM [falling, single point].
As for `O=C(O)CCCC(=O)Nc1ccc(Br)cc1C(=O)O`, the AC50 is 6.31 µM [falling, partial curve].
As to `COc1ccc(CCn2c(=O)c3cccnc3n(CC(=O)Nc3ccc(C)c(F)c3)c2=O)cc1OC`, the AC50 is 15.8 µM [falling, partial curve].

The AC50 is the concentration giving half of the maximal activity seen.

(Values after PubChem BioAssay AID445 (National Center for Advancing Translational Sciences (NCATS), 2006).)
